For assay [1], the target named is Bacillus subtilis acetyltransferase AcuA (Bacillus subtilis) (UniProt P39065). The assay can be described thus: SEC; analytical SEC of the preformed equimolar AcsA•AcuA complex pretreated with a tenfold molar excess of acetyl-CoA (excess also varied), 30 min at room temperature; fractions checked by anti-AcK immunoblot and Ponceau S; both purified. Background: SEC sorts molecules by how far they enter the pores of the column.

The target is the same in assay [2]. The experiment in a line: SEC; analytical SEC of the single proteins, Superdex 200 10/300 GL, 50 mM Tris/HCl pH 8, 50 mM KCl, 2 mM β-mercaptoethanol; 100 µl of 50–100 µM injected; MW from a calibration curve; both purified.

These are yes or no findings as the source states them, for the method shown.

B1: Bacillus subtilis acetyltransferase AcuA (enzyme, UniProt P39065 1-210, looked up)
chain: MEHHKTYHSANIKTATGSLLIEGPVSPEDLAGYEFHKDLTAFRPPREQHEALVDIAGLPEGRIIIARDGRTIVGYVTYLYPDPLERWSEGNMEDLIELGAIEVAPDYRGCAVGKTLLTVSMMDEQMENYIVMTTEYYWHWDLKGMKKDVWEYRKIMEKMMNAGGLVWFATDEPEISSHPANCLMARIGKNVSQESIEQFDRLRFYHRYMY
notes: GNAT-related lysine acetyltransferase AcuA, Bacillus subtilis, UniProt P39065; synthetic gene codon optimized for E. coli; also called AcuA wildtype; AcuA WT; source: E. coli BL21 (DE3), pET45b(+), purified (HisTrap FF, Ni2+)
Regarding B1, the binding entry in assay [1] and in assay [2] was “no binding (tested: 100 µl of 50–100 µM injected)” each time.

These data come from PMC11255334, “Acetyl-CoA synthetase activity is enzymatically regulated by lysine acetylation using acetyl-CoA or acetyl-phosphate as donor molecule” (Nature Communications, 2024).
